In PubChem BioAssay AID188 (DTP/NCI, 2004):
Shown are survivors of the treated group in tumour-free mice. Survivors were counted at the toxicity check, usually on the fifth day, unless a day is given; later deaths do not show. Schedule codes are those of the source, taken here to give the interval after Q, in days (D) or hours (H), and the number of doses after X.

Tested on: CD2F1 mice, nontumored, toxicity/survival
Assay: NCI In Vivo Anticancer Drug Screen. Data for tumor model Nontumored Animals (Toxicity Test) in CD2F1 (CDF1) mice

With `S=P(N1CC1)(N1CC1)N1CC1` the survivor count (dose: 0.5 mg/kg/injection, schedule: Q03HX024 (ip), vehicle: saline) was 8 of 8, the survivor count (dose: 1.0 mg/kg/injection, schedule: Q01DX005 (iv), vehicle: saline) was 8 of 8 and the survivor count (dose: 1.0 mg/kg/injection, schedule: Q01DX009 (ip), vehicle: saline) was 8 of 8. The survivor count (dose: 1.0 mg/kg/injection, schedule: Q01DX009 (sc), vehicle: saline) was 8 of 8, the survivor count (dose: 1.0 mg/kg/injection, schedule: Q03HX008 (ip), vehicle: saline) was 8 of 8 and the survivor count (dose: 1.0 mg/kg/injection, schedule: Q03HX016 (ip), vehicle: saline) was 8 of 8. The survivor count (dose: 1.0 mg/kg/injection, schedule: Q03HX024 (ip), vehicle: saline) was 8 of 8, the survivor count (dose: 2.0 mg/kg/injection, schedule: Q01DX005 (iv), vehicle: saline) was 8 of 8 and the survivor count (dose: 2.0 mg/kg/injection, schedule: Q01DX009 (ip), vehicle: saline) was 8 of 8. For the same compound, the survivor count (dose: 2.0 mg/kg/injection, schedule: Q01DX009 (sc), vehicle: saline) was 8 of 8, the survivor count (dose: 2.0 mg/kg/injection, schedule: Q03HX008 (ip), vehicle: saline) was 8 of 8 and the survivor count (dose: 2.0 mg/kg/injection, schedule: Q03HX016 (ip), vehicle: saline) was 8 of 8. The survivor count (dose: 2.0 mg/kg/injection, schedule: Q03HX024 (ip), vehicle: saline) was 8 of 8, the survivor count (dose: 4.0 mg/kg/injection, schedule: Q01DX001 (iv), vehicle: saline) was 8 of 8 and the survivor count (dose: 4.0 mg/kg/injection, schedule: Q01DX001 (sc), vehicle: saline) was 8 of 8. For the same compound, the survivor count (dose: 4.0 mg/kg/injection, schedule: Q01DX005 (iv), vehicle: saline) was 8 of 8, the survivor count (dose: 4.0 mg/kg/injection, schedule: Q01DX009 (ip), vehicle: saline) was 8 of 8 and the survivor count (dose: 4.0 mg/kg/injection, schedule: Q01DX009 (oral), vehicle: saline) was 8 of 8. The survivor count (dose: 4.0 mg/kg/injection, schedule: Q01DX009 (sc), vehicle: saline) was 8 of 8, the survivor count (dose: 4.0 mg/kg/injection, schedule: Q03HX008 (ip), vehicle: saline) was 8 of 8 and the survivor count (dose: 4.0 mg/kg/injection, schedule: Q03HX016 (ip), vehicle: saline) was 8 of 8. The survivor count (dose: 4.0 mg/kg/injection, schedule: Q03HX024 (ip), vehicle: saline) was 8 of 8, the survivor count (dose: 4.0 mg/kg/injection, schedule: Q04DX003 (ip), vehicle: saline) was 8 of 8 and the survivor count (dose: 8.0 mg/kg/injection, schedule: Q01DX001 (ip), vehicle: saline) was 8 of 8. The survivor count (dose: 8.0 mg/kg/injection, schedule: Q01DX001 (iv), vehicle: saline) was 8 of 8, the survivor count (dose: 8.0 mg/kg/injection, schedule: Q01DX001 (sc), vehicle: saline) was 8 of 8 and the survivor count (dose: 8.0 mg/kg/injection, schedule: Q01DX005 (iv), vehicle: saline) was 8 of 8. For the same compound, the survivor count (dose: 8.0 mg/kg/injection, schedule: Q01DX009 (ip), vehicle: saline) was 8 of 8, the survivor count (dose: 8.0 mg/kg/injection, schedule: Q01DX009 (oral), vehicle: saline) was 8 of 8 and the survivor count (dose: 8.0 mg/kg/injection, schedule: Q01DX009 (sc), vehicle: saline) was 8 of 8. For the same compound, the survivor count (dose: 8.0 mg/kg/injection, schedule: Q03HX008 (ip), vehicle: saline) was 6 of 8, the survivor count (dose: 8.0 mg/kg/injection, schedule: Q03HX016 (ip), vehicle: saline) was 8 of 8 and the survivor count (dose: 8.0 mg/kg/injection, schedule: Q03HX024 (ip), vehicle: saline) was 6 of 8. For the same compound, the survivor count (dose: 8.0 mg/kg/injection, schedule: Q04DX003 (ip), vehicle: saline) was 8 of 8, the survivor count (dose: 8.0 mg/kg/injection, schedule: Q08DX002 (ip), vehicle: saline) was 8 of 8 and the survivor count (dose: 10.0 mg/kg/injection, schedule: Q01DX001 (ip), vehicle: saline) was 10 of 10. For the same compound, the survivor count (dose: 11.0 mg/kg/injection, schedule: Q01DX001 (ip), vehicle: saline) was 10 of 10, the survivor count (dose: 15.0 mg/kg/injection, schedule: Q01DX001 (ip), vehicle: saline) was 10 of 10 and the survivor count (dose: 16.0 mg/kg/injection, schedule: Q01DX001 (ip), vehicle: saline) was 8 of 8. The survivor count (dose: 16.0 mg/kg/injection, schedule: Q01DX001 (iv), vehicle: saline) was 8 of 8, the survivor count (dose: 16.0 mg/kg/injection, schedule: Q01DX001 (oral), vehicle: saline) was 8 of 8 and the survivor count (dose: 16.0 mg/kg/injection, schedule: Q01DX001 (sc), vehicle: saline) was 8 of 8. For the same compound, the survivor count (dose: 16.0 mg/kg/injection, schedule: Q01DX005 (iv), vehicle: saline) was 8 of 8, the survivor count (dose: 16.0 mg/kg/injection, schedule: Q01DX009 (ip), vehicle: saline) was 8 of 8 and the survivor count (dose: 16.0 mg/kg/injection, schedule: Q01DX009 (oral), vehicle: saline) was 8 of 8. The survivor count (dose: 16.0 mg/kg/injection, schedule: Q01DX009 (sc), vehicle: saline) was 8 of 8, the survivor count (dose: 16.0 mg/kg/injection, schedule: Q04DX003 (ip), vehicle: saline) was 8 of 8 and the survivor count (dose: 16.0 mg/kg/injection, schedule: Q08DX002 (ip), vehicle: saline) was 8 of 8. For the same compound, the survivor count (dose: 17.0 mg/kg/injection, schedule: Q01DX001 (ip), vehicle: saline) was 10 of 10, the survivor count (dose: 25.0 mg/kg/injection, schedule: Q01DX001 (ip), vehicle: saline) was 9 of 10 and the survivor count (dose: 32.0 mg/kg/injection, schedule: Q01DX001 (ip), vehicle: saline) was 7 of 8. For the same compound, the survivor count (dose: 32.0 mg/kg/injection, schedule: Q01DX001 (iv), vehicle: saline) was 3 of 8, the survivor count (dose: 32.0 mg/kg/injection, schedule: Q01DX001 (oral), vehicle: saline) was 8 of 8 and the survivor count (dose: 32.0 mg/kg/injection, schedule: Q01DX001 (sc), vehicle: saline) was 4 of 8. For the same compound, the survivor count (dose: 32.0 mg/kg/injection, schedule: Q01DX009 (oral), vehicle: saline) was 6 of 8, the survivor count (dose: 32.0 mg/kg/injection, schedule: Q04DX003 (ip), vehicle: saline) was 4 of 8 and the survivor count (dose: 32.0 mg/kg/injection, schedule: Q08DX002 (ip), vehicle: saline) was 6 of 8. For the same compound, the survivor count (dose: 64.0 mg/kg/injection, schedule: Q01DX001 (ip), vehicle: saline) was 6 of 8, the survivor count (dose: 64.0 mg/kg/injection, schedule: Q01DX001 (iv), vehicle: saline) was 5 of 8 and the survivor count (dose: 64.0 mg/kg/injection, schedule: Q01DX001 (oral), vehicle: saline) was 5 of 8. For the same compound, the survivor count (dose: 64.0 mg/kg/injection, schedule: Q01DX001 (sc), vehicle: saline) was 5 of 8, the survivor count (dose: 64.0 mg/kg/injection, schedule: Q01DX009 (oral), vehicle: saline) was 7 of 8 and the survivor count (dose: 64.0 mg/kg/injection, schedule: Q04DX003 (ip), vehicle: saline) was 6 of 8. For the same compound, the survivor count (dose: 64.0 mg/kg/injection, schedule: Q08DX002 (ip), vehicle: saline) was 5 of 8, the survivor count (dose: 128.0 mg/kg/injection, schedule: Q01DX001 (oral), vehicle: saline) was 2 of 8 and the survivor count (dose: 256.0 mg/kg/injection, schedule: Q01DX001 (oral), vehicle: saline) was 3 of 8.

In the case of `CC(=O)Nc1ncc2ccccc2c1-c1ccc(NC(=O)CN(CCCl)CCCl)cc1`, the survivor count (dose: 1.0 mg/kg/injection, schedule: Q01DX001 (ip), vehicle: DMSO) is reported as 2 of 2, the survivor count (dose: 1.0 mg/kg/injection, schedule: Q01DX001 (ip), vehicle: olive oil, sesame oil, peanut oil) is reported as 2 of 2 and the survivor count (dose: 10.0 mg/kg/injection, schedule: Q01DX001 (ip), vehicle: DMSO) is reported as 2 of 2. The survivor count (dose: 10.0 mg/kg/injection, schedule: Q01DX001 (ip), vehicle: olive oil, sesame oil, peanut oil) was 2 of 2, the survivor count (dose: 100.0 mg/kg/injection, schedule: Q01DX001 (ip), vehicle: DMSO) was 2 of 2 and the survivor count (dose: 100.0 mg/kg/injection, schedule: Q01DX001 (ip), vehicle: olive oil, sesame oil, peanut oil) was 2 of 2.

For `CCN(C)N=Nc1ccc(C(N)=O)cc1`, the survivor count (dose: 79.0 mg/kg/injection, schedule: Q01DX009 (ip), vehicle: Klucel (hydroxypropylcellulose) (HPC)) was 10 of 10, the survivor count (dose: 118.0 mg/kg/injection, schedule: Q01DX009 (ip), vehicle: Klucel (hydroxypropylcellulose) (HPC)) was 10 of 10 and the survivor count (dose: 177.0 mg/kg/injection, schedule: Q01DX009 (ip), vehicle: Klucel (hydroxypropylcellulose) (HPC)) was 8 of 10. For the same compound, the survivor count (dose: 266.0 mg/kg/injection, schedule: Q01DX009 (ip), vehicle: Klucel (hydroxypropylcellulose) (HPC)) was 8 of 10 and the survivor count (dose: 400.0 mg/kg/injection, schedule: Q01DX009 (ip), vehicle: Klucel (hydroxypropylcellulose) (HPC)) was 0 of 10.
